# Measurements reported in the supplement of paper PMC12823440, “Inhibitors supercharge kinase turnover through native proteolytic circuits” (Nature, 2025).
# Sequences of proteins named here, by UniProt entry; tags and fusion partners are left off. A change or cut given only in a name is not applied to a line headed by its entry.
# UniProt O15530: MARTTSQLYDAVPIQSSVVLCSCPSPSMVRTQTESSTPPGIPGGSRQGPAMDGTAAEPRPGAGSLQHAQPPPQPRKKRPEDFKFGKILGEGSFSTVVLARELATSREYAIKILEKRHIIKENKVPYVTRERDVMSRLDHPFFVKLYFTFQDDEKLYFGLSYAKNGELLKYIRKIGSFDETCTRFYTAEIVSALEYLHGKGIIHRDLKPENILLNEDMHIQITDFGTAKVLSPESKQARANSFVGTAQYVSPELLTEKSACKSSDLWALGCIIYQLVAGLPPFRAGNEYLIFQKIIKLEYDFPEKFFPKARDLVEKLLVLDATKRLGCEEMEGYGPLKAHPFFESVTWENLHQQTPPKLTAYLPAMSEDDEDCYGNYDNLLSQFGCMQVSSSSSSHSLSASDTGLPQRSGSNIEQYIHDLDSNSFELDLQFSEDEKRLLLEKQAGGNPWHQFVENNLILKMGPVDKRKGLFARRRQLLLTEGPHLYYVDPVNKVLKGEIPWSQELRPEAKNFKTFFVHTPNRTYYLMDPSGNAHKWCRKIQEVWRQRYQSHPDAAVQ
# UniProt P42356, whole entry, looked up: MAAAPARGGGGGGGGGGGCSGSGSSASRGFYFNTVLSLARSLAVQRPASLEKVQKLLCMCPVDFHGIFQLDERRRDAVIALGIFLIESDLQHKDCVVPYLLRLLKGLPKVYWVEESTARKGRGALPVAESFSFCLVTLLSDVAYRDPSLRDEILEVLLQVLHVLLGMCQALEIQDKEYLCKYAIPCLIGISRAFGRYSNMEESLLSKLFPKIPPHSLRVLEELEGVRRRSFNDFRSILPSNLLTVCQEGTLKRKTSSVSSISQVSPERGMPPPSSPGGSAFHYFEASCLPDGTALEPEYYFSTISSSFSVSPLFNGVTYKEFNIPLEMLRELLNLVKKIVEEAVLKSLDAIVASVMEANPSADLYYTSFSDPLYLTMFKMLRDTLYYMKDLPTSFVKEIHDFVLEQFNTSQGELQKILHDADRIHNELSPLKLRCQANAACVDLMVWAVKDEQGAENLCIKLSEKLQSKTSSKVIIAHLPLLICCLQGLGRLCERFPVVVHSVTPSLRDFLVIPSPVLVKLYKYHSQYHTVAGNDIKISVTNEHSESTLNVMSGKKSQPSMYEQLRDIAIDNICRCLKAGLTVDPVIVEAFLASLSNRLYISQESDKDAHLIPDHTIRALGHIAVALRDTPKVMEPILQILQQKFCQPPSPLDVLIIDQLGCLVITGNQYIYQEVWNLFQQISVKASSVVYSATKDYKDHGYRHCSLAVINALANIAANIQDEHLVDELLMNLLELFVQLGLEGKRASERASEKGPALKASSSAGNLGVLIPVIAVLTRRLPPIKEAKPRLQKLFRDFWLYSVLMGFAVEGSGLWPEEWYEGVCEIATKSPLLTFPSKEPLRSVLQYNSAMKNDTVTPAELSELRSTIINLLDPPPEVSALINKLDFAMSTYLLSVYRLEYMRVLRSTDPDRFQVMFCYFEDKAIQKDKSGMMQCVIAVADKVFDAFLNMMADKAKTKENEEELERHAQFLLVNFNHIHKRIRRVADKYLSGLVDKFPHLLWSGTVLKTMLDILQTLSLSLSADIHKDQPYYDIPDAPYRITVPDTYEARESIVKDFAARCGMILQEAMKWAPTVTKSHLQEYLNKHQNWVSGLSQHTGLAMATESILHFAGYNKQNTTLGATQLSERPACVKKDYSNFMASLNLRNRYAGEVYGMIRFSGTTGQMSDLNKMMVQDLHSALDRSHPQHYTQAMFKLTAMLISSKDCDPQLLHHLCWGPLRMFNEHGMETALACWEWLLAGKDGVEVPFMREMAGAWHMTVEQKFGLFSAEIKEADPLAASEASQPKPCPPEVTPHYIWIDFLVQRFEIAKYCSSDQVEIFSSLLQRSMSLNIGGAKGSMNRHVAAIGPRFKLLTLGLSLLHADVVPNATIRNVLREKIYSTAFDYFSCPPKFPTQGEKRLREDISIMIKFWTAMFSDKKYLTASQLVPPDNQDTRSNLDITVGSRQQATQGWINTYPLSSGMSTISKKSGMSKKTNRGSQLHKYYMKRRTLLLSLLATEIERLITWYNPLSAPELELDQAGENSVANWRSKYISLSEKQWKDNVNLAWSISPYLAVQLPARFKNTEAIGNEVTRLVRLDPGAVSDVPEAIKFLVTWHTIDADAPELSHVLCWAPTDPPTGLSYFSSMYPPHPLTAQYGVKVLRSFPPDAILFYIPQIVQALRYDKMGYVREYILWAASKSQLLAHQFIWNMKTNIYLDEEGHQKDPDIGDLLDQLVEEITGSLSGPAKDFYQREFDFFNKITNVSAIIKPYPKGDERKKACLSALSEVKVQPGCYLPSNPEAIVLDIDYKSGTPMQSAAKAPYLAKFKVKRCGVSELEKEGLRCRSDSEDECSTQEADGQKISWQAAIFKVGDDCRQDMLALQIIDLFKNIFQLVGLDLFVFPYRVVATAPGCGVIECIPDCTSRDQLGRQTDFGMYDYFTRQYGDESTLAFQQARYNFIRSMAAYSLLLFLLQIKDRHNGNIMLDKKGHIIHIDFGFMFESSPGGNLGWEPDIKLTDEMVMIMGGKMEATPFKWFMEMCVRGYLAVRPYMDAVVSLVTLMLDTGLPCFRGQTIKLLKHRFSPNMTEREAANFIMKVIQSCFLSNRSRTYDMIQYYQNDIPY
# UniProt Q9UBF8: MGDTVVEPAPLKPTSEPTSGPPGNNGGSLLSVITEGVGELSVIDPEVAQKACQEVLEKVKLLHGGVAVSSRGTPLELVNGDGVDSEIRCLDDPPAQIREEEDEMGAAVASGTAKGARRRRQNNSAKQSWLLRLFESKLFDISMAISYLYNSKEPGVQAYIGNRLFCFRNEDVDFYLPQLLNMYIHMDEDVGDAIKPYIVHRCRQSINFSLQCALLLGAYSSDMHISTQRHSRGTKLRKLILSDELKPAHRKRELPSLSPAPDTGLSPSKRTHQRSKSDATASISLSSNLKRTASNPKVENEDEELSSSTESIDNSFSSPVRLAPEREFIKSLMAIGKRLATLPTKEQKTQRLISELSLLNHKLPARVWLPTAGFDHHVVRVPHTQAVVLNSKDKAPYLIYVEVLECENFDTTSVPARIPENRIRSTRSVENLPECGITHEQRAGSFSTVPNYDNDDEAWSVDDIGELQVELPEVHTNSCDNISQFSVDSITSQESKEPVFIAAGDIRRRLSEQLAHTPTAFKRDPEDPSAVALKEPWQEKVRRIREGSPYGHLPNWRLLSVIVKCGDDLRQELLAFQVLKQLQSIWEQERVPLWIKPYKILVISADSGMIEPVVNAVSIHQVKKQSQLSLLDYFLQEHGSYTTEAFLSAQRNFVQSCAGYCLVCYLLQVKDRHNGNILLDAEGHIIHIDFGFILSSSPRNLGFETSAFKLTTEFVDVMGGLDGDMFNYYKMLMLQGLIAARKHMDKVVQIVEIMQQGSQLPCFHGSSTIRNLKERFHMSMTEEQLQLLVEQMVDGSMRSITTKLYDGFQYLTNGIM
# UniProt Q13131: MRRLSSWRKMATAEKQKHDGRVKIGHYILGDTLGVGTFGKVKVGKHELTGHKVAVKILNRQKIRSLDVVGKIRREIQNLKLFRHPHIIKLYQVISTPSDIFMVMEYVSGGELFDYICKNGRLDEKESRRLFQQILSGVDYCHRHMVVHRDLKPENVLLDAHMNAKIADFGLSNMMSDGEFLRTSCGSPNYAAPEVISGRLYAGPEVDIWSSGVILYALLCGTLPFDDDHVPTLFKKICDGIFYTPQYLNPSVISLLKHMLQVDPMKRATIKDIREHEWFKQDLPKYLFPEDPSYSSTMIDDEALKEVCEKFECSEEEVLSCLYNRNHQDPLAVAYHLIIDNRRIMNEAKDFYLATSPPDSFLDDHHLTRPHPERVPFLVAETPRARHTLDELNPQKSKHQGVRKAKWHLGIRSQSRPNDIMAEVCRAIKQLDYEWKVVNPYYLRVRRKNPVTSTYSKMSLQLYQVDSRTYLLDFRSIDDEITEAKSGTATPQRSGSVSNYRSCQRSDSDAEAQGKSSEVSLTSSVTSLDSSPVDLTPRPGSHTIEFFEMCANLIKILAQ
# UniProt Q05397, whole entry, looked up: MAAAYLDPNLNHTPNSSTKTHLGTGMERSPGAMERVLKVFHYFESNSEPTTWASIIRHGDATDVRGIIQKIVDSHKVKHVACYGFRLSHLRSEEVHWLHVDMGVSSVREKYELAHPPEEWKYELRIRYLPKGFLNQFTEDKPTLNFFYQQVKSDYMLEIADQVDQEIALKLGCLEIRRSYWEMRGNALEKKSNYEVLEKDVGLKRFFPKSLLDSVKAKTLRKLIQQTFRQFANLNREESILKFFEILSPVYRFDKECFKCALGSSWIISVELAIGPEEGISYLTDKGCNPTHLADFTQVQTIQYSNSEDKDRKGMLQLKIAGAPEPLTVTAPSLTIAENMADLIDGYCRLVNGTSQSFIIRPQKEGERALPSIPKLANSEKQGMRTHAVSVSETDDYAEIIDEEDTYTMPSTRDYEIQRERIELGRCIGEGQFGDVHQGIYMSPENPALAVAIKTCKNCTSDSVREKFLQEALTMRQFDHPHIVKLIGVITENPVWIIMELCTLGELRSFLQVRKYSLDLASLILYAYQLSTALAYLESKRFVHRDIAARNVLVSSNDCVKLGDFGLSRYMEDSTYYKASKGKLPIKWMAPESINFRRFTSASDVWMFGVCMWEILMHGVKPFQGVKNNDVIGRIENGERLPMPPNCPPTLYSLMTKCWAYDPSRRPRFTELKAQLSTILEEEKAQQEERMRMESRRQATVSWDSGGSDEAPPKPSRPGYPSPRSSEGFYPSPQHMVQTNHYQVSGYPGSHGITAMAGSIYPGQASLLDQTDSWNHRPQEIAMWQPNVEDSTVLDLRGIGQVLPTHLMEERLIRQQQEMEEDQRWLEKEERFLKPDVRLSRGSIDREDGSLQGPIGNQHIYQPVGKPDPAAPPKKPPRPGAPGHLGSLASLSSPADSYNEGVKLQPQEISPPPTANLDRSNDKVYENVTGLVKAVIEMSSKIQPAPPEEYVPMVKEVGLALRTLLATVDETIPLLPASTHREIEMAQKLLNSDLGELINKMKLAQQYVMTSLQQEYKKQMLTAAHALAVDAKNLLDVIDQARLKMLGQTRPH
# UniProt Q14289, whole entry, looked up: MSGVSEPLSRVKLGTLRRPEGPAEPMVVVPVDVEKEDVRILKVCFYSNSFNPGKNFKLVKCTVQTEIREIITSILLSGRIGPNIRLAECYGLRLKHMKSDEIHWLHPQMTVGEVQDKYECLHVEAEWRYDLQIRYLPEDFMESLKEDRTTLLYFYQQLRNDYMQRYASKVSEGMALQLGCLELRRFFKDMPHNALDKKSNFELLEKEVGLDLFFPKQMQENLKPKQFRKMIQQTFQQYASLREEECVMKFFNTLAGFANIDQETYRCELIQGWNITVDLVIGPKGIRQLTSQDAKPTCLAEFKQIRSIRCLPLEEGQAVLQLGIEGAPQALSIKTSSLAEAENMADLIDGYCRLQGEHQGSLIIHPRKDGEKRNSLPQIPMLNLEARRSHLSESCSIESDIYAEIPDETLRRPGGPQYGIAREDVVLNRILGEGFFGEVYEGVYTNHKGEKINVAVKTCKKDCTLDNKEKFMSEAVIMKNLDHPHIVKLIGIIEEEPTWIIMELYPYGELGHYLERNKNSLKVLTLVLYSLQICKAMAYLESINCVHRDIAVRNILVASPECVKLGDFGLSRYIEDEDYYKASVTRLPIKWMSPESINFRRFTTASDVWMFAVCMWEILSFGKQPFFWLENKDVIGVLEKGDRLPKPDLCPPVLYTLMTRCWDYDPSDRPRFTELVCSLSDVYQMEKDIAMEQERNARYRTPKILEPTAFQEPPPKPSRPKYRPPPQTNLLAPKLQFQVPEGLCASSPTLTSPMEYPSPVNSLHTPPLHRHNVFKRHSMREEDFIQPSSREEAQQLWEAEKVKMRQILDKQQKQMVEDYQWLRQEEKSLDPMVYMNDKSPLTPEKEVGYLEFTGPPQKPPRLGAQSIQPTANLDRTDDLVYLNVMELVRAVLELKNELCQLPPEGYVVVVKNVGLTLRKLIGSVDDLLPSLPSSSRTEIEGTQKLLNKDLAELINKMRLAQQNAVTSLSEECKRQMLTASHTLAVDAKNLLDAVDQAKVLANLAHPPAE
# Counter-ions that a name gives are not always drawn. Some of the results follow. The calls rarely recur for the same compound in another form.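 In K562 cells expressing nanoluciferase-fused kinases, luminescence was recorded at 4 h intervals between 2 and 18 h, normalized as percent of control with DMSO at 100% and a positive control at 0%. A significant (2 sigma) signal drop marks a time point as decreased. The authors' rule for a hit is not shown and takes in more than the number of time points.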
# Columns and labels:
# Assay in all cases: kinase-Nluc reporter destabilization hit call (1 = scored as downregulated) (binary); higher = compound decreases kinase abundance
# Details in all cases: K562; 2-18 h
# [1] = biological target: PDPK1 (UniProt O15530)
# [2] = biological target: PIK4CA (UniProt P42356)
# [3] = biological target: PIK4CB (UniProt Q9UBF8)
# [4] = biological target: PLK1 (UniProt P53350)
# [5] = biological target: PRKAA1 (UniProt Q13131)
# [6] = biological target: PRKCA (UniProt P17252)
# [7] = biological target: PTK2 (UniProt Q05397)
# [8] = biological target: PTK2B (UniProt Q14289)
# [9] = biological target: RAF1 (UniProt P04049)
# [10] = biological target: RAF1_S257L (clone: RAF1_mut) (UniProt P04049)
SMILES,kinase-Nluc reporter destabilization hit call [1],kinase-Nluc reporter destabilization hit call [2],kinase-Nluc reporter destabilization hit call [3],kinase-Nluc reporter destabilization hit call [4],kinase-Nluc reporter destabilization hit call [5],kinase-Nluc reporter destabilization hit call [6],kinase-Nluc reporter destabilization hit call [7],kinase-Nluc reporter destabilization hit call [8],kinase-Nluc reporter destabilization hit call [9],kinase-Nluc reporter destabilization hit call [10]
C[S+]([O-])/C=C/CCN=C=S (stereo unspecified) [Sulforaphene] (10 µM),inactive: 0,inactive: 0,inactive: 0,inactive: 0,inactive: 0,inactive: 0,inactive: 0,inactive: 0,inactive: 0,inactive: 0
CC(=O)O[C@H]1[C@H]2[C@@H](OC(=O)Cc3ccccc3)[C@@H](C)C[C@]2(OC(C)=O)C(=O)/C(C)=C/[C@@H]2[C@H](CC[C@@]13CO3)C2(C)C [Euphorbiasteroid] (10 µM),inactive: 0,inactive: 0,inactive: 0,inactive: 0,inactive: 0,inactive: 0,inactive: 0,inactive: 0,inactive: 0,inactive: 0
O=[N+]([O-])/C=C/c1ccc2c(c1)OCO2 (2.5 µM),inactive: 0,inactive: 0,inactive: 0,inactive: 0,inactive: 0,inactive: 0,inactive: 0,inactive: 0,inactive: 0,inactive: 0
COC[C@H]1OC(=O)c2coc3c2[C@@]1(C)C1=C(C3=O)[C@@H]2CCC(=O)[C@@]2(C)C[C@H]1OC(C)=O [Wortmannin] (2.5 µM),inactive: 0,inactive: 0,inactive: 0,–,inactive: 0,inactive: 0,inactive: 0,inactive: 0,inactive: 0,inactive: 0
CCOC(=O)c1c(/C(C#N)=C\N)c2ccc(Cl)c(Cl)c2n1C (10 µM),inactive: 0,inactive: 0,inactive: 0,inactive: 0,inactive: 0,inactive: 0,inactive: 0,inactive: 0,inactive: 0,inactive: 0
O=C(/C=C/c1ccccc1)OC[C@H]1O[C@@H](O[C@@H]2OC=C[C@H]3[C@H](O)[C@@H]4O[C@]4(CO)[C@@H]23)[C@H](O)[C@@H](O)[C@@H]1O [Picroside I] (10 µM),inactive: 0,inactive: 0,inactive: 0,inactive: 0,inactive: 0,inactive: 0,inactive: 0,inactive: 0,inactive: 0,inactive: 0
O=C(N[C@@H](COc1ccc2[nH]c(=O)[nH]c2c1)c1ccccc1)c1cccn(Cc2ccc(F)c(F)c2)c1=O (2.5 µM),–,inactive: 0,inactive: 0,inactive: 0,inactive: 0,inactive: 0,inactive: 0,inactive: 0,inactive: 0,inactive: 0
O=C1C=CC[C@@H]2[C@H]3CCCN4CCC[C@@H](CN12)[C@@H]34 [Sophocarpine (monohydrate)] (2.5 µM),inactive: 0,inactive: 0,inactive: 0,inactive: 0,inactive: 0,inactive: 0,inactive: 0,inactive: 0,inactive: 0,inactive: 0
O=Cc1cn(Cc2ccc(Cl)cc2)c2ccccc12 [Oncrasin-1] (10 µM),inactive: 0,inactive: 0,inactive: 0,inactive: 0,inactive: 0,inactive: 0,inactive: 0,inactive: 0,inactive: 0,inactive: 0
COc1ccc2c(c1)[nH]c1c(C)nccc12 [Harmine] (10 µM),inactive: 0,inactive: 0,inactive: 0,inactive: 0,inactive: 0,inactive: 0,inactive: 0,inactive: 0,inactive: 0,inactive: 0
C[C@H](CCC(=O)O)C[C@H](C)C[C@H](C)C(=O)/C=C(\O)[C@H](C)C[C@H](C)C/C=C/[C@@H](C)[C@@H](O)[C@@H](C)[C@@H](O)C[C@@H]1CC[C@@](C)([C@H]2CC[C@@](C)([C@@H](C)O)O2)O1 [Ionomycin (calcium)] (2.5 µM),inactive: 0,inactive: 0,inactive: 0,inactive: 0,active: 1,inactive: 0,inactive: 0,inactive: 0,inactive: 0,inactive: 0
C[C@H](Nc1ncnc2[nH]cnc12)c1nc2ccc(F)cc2c(=O)n1-c1ccccc1 [Acalisib] (10 µM),inactive: 0,inactive: 0,inactive: 0,inactive: 0,inactive: 0,inactive: 0,inactive: 0,inactive: 0,inactive: 0,inactive: 0
C/C(O)=C(\C#N)C(=O)Nc1cc(Br)ccc1Br (10 µM),inactive: 0,inactive: 0,inactive: 0,inactive: 0,inactive: 0,inactive: 0,inactive: 0,inactive: 0,inactive: 0,inactive: 0
CC1=C[C@]23C(=O)[C@@H](C=C(CO)[C@@H](O)[C@]2(O)[C@H]1O)[C@H]1[C@@H](C[C@H]3C)C1(C)C [Ingenol] (10 µM),inactive: 0,inactive: 0,inactive: 0,inactive: 0,inactive: 0,inactive: 0,inactive: 0,inactive: 0,inactive: 0,inactive: 0
CCN1CCN(C(=O)Cc2ccc(Nc3ncc(F)c(Nc4ccc(C(=O)Nc5ccccc5Cl)cc4)n3)cc2)CC1 (2.5 µM),inactive: 0,inactive: 0,inactive: 0,inactive: 0,inactive: 0,inactive: 0,inactive: 0,inactive: 0,inactive: 0,inactive: 0
O=c1[nH]c2ccccc2n1C1CCN(CCCC(c2ccc(F)cc2)c2ccc(F)cc2)CC1 [Pimozide] (2.5 µM),inactive: 0,inactive: 0,inactive: 0,inactive: 0,inactive: 0,inactive: 0,inactive: 0,inactive: 0,inactive: 0,inactive: 0

# Some of the entries so far, with tabs.
SMILES	kinase-Nluc reporter destabilization hit call [1]	kinase-Nluc reporter destabilization hit call [2]	kinase-Nluc reporter destabilization hit call [3]	kinase-Nluc reporter destabilization hit call [4]	kinase-Nluc reporter destabilization hit call [5]	kinase-Nluc reporter destabilization hit call [6]	kinase-Nluc reporter destabilization hit call [7]	kinase-Nluc reporter destabilization hit call [8]	kinase-Nluc reporter destabilization hit call [9]	kinase-Nluc reporter destabilization hit call [10]
C[S+]([O-])/C=C/CCN=C=S (stereo unspecified) [Sulforaphene] (10 µM)	inactive: 0	inactive: 0	inactive: 0	inactive: 0	inactive: 0	inactive: 0	inactive: 0	inactive: 0	inactive: 0	inactive: 0
CC(=O)O[C@H]1[C@H]2[C@@H](OC(=O)Cc3ccccc3)[C@@H](C)C[C@]2(OC(C)=O)C(=O)/C(C)=C/[C@@H]2[C@H](CC[C@@]13CO3)C2(C)C [Euphorbiasteroid] (10 µM)	inactive: 0	inactive: 0	inactive: 0	inactive: 0	inactive: 0	inactive: 0	inactive: 0	inactive: 0	inactive: 0	inactive: 0

# Further structures.

SMILES,kinase-Nluc reporter destabilization hit call [1],kinase-Nluc reporter destabilization hit call [2],kinase-Nluc reporter destabilization hit call [3],kinase-Nluc reporter destabilization hit call [4],kinase-Nluc reporter destabilization hit call [5],kinase-Nluc reporter destabilization hit call [6],kinase-Nluc reporter destabilization hit call [7],kinase-Nluc reporter destabilization hit call [8],kinase-Nluc reporter destabilization hit call [9],kinase-Nluc reporter destabilization hit call [10]
CCCCCCCCCCCCCCCCOC[C@H](COP(=O)([O-])OCC[N+](C)(C)C)OC(C)=O (10 µM),inactive: 0,inactive: 0,inactive: 0,inactive: 0,inactive: 0,inactive: 0,inactive: 0,inactive: 0,inactive: 0,inactive: 0
CC(C)(C)c1cc(C=C(C#N)C#N)cc(Br)c1O (2.5 µM),inactive: 0,inactive: 0,inactive: 0,inactive: 0,inactive: 0,inactive: 0,inactive: 0,inactive: 0,inactive: 0,inactive: 0
NCCc1cn(S(=O)(=O)c2c(Cl)nc3sccn23)c2ccccc12 (10 µM),inactive: 0,inactive: 0,inactive: 0,inactive: 0,inactive: 0,inactive: 0,inactive: 0,inactive: 0,inactive: 0,inactive: 0
COc1ccc2c(c1)/C(=C/c1cnc[nH]1)C(=O)N2 (2.5 µM),inactive: 0,inactive: 0,inactive: 0,inactive: 0,inactive: 0,inactive: 0,inactive: 0,–,inactive: 0,inactive: 0
O=C1c2ccccc2C(=O)c2c1cccc2-c1cnn(C2CCNCC2)c1 [PDK4-IN-1 (hydrochloride)] (10 µM),inactive: 0,inactive: 0,inactive: 0,inactive: 0,inactive: 0,inactive: 0,inactive: 0,inactive: 0,inactive: 0,inactive: 0
C[C@@H]1CC[C@H]2[C@@H](C)C(=O)O[C@@H]3O[C@@]4(C)CC[C@@H]1[C@]32OO4 [Artemisinin] (10 µM),inactive: 0,inactive: 0,inactive: 0,inactive: 0,inactive: 0,inactive: 0,inactive: 0,inactive: 0,inactive: 0,inactive: 0
COc1ccc2c(c[n+](C)c3c4cc5c(cc4ccc23)OCO5)c1OC [Chelerythrine (chloride)] (10 µM),inactive: 0,inactive: 0,inactive: 0,inactive: 0,inactive: 0,inactive: 0,inactive: 0,inactive: 0,inactive: 0,inactive: 0
N#CC(C#N)=Cc1ccc(O)c(O)c1 [Tyrphostin 23] (10 µM),inactive: 0,inactive: 0,inactive: 0,inactive: 0,inactive: 0,inactive: 0,inactive: 0,–,inactive: 0,inactive: 0
Cc1[nH]ncc1-c1cc2nc([C@H]3CC4CCN3CC4)[nH]c(=O)c2s1 [(R)-Simurosertib] (10 µM),inactive: 0,inactive: 0,inactive: 0,inactive: 0,inactive: 0,inactive: 0,inactive: 0,inactive: 0,inactive: 0,inactive: 0
CCCS(=O)(=O)Nc1ccc(F)c(-n2cc(-c3cncnc3)c3nc(N(C)C4CCN(CC)CC4)ccc32)c1F (2 µM),inactive: 0,inactive: 0,inactive: 0,inactive: 0,inactive: 0,inactive: 0,inactive: 0,inactive: 0,inactive: 0,inactive: 0
C[C@H]1CC[C@]2(NC1)O[C@H]1C[C@H]3[C@@H]4CC[C@H]5C[C@@H](O[C@@H]6O[C@H](CO)[C@H](O[C@@H]7O[C@H](CO)[C@@H](O)[C@H](O[C@@H]8OC[C@@H](O)[C@H](O)[C@H]8O)[C@H]7O[C@@H]7O[C@H](CO)[C@@H](O)[C@H](O)[C@H]7O)[C@H](O)[C@H]6O)CC[C@]5(C)[C@H]4CC[C@]3(C)[C@H]1[C@@H]2C [Tomatine] (2.5 µM),inactive: 0,inactive: 0,inactive: 0,inactive: 0,inactive: 0,inactive: 0,inactive: 0,inactive: 0,inactive: 0,inactive: 0
CN(C)C(=O)c1ccc(Cn2c(C(=O)O)cc3c(Br)cc(Sc4ccc(Cl)c(Cl)c4)cc32)cc1 [Rheb inhibitor NR1] (10 µM),inactive: 0,inactive: 0,inactive: 0,inactive: 0,inactive: 0,inactive: 0,inactive: 0,inactive: 0,inactive: 0,inactive: 0
O=c1ccc2cc(O[C@@H]3O[C@H](CO)[C@@H](O)[C@H](O)[C@H]3O)c(O)cc2o1 [Esculin] (10 µM),inactive: 0,inactive: 0,inactive: 0,inactive: 0,inactive: 0,inactive: 0,inactive: 0,inactive: 0,inactive: 0,inactive: 0
Cc1n[nH]cc1-c1cc2nc([C@@H]3CC4CCN3CC4)[nH]c(=O)c2s1 [Simurosertib] (2.5 µM),inactive: 0,inactive: 0,inactive: 0,inactive: 0,inactive: 0,inactive: 0,inactive: 0,inactive: 0,inactive: 0,inactive: 0
Cc1ccccc1-n1c(Cn2ncc3c(N)ncnc32)nc2cccc(C)c2c1=O (10 µM),inactive: 0,inactive: 0,inactive: 0,inactive: 0,inactive: 0,inactive: 0,inactive: 0,inactive: 0,inactive: 0,inactive: 0
